Laboratory results: article PMC6627698, “Redesigning Arenicin-1, an Antimicrobial Peptide from the Marine Polychaeta Arenicola marina, by Strand Rearrangement or Branching, Substitution of Specific Residues, and Backbone Linearization or Cyclization” (Marine Drugs, 2019)
Marks after values point to notes of the source that are not given here. Residues, ends and D or L forms follow the SMILES beside them. *: point of attachment. Cam = NC(=O)C*

How the values were obtained:
Assay type in all cases: cell-based
[1] = system: human red blood cells; settings: for SI2 improvement ratio in comparison with AR: ratio of SI2 of the peptide to SI2 of native AR; for SI3 improvement ratio in comparison with AR: ratio of SI3 of the peptide to SI3 of native AR; for SI3 assessment HC15/G-MIC: selectivity index: HC15 / G-MIC; for SI2 assessment HC50/G-MIC: selectivity index: HC50 / G-MIC
[2] = system: set of Gram-negative and Gram-positive bacteria, including drug-resistant clinical isolates; settings: ratio of G-MIC of native AR to G-MIC of the peptide; * = higher overall activity than AR
Method: To obtain a global assessment of the effect on antimicrobial activity, the geometric mean of the MIC (G-MIC) was calculated, and from this, the overall improvement or impoverishment with respect to arenicin-1. In general, inverting the symmetry or decreasing the charge had detrimental effects.
The overall activity against a set of tested bacterial strains was determined by way of the commonly used geometric mean of measured MIC values. […] At the same time, the geometric mean can still discriminate antimicrobial agents showing minor variations in activity; in other words, it has a better “resolution” than the median MIC (MIC50). Some mathematical basics for choosing the geometric mean for antimicrobial activity comparison are further discussed in the Supplementary Chapter S3.

[3] = system: human erythroleukemia K-562 cells; settings: for SI1 improvement ratio in comparison with AR: ratio of SI1 of the peptide to SI1 of native AR; for SI1 assessment IC50/G-MIC: selectivity index: K-562 IC50 / G-MIC
Method: The standard MTT ((3-(4,5-Dimethylthiazol-2-yl)-2,5-diphenyltetrazolium bromide) test was used for the examination of the cytotoxic activity of AMPs towards human erithroleukemia cells K-562. The cells were purchased from Biolot (Saint Petersburg, Russia) and were grown in RPMI 1640 medium (Biolot, Saint Petersburg, Russia) supplemented with glutamine and 10% FCS. Before the experiment, the culturing medium was replaced with serum-free RPMI 1640. Serial dilutions of the peptides in RPMI were plated in sterile 96-well microplates, and the target cells were dispensed to the microplates (10^5 cells/well in RPMI 1640). The plates were incubated for 24 h at 37 °C under 5% CO2. Cell-free media and cells incubated without peptides served as controls. Four hours before the incubation ended, MTT in PBS (5 mg/mL) was added to each well. After the incubation was stopped by adding isopropanol/ 0.04 M HCl, the optical density was measured at 540 nm, subtracting the background absorbance at 690 nm. Toxicity was determined by nonlinear regression analysis of the corresponding dose–response curves using the Sigma Plot 11 program to calculate the IC50 values (the concentration of the test substance that reduced the OD540 capacity by 50%).

**Q.** `CC(C)C[C@@H]1NC(=O)[C@H](C(C)C)NC(=O)CNC(=O)[C@H](CCCNC(=N)N)NC(=O)[C@H](C(C)C)NC(=O)[C@H](CCCNC(=N)N)NC(=O)[C@H](C(C)C)NC(=O)[C@H](Cc2ccc(O)cc2)NC(=O)[C@H](C)NC(=O)[C@H](Cc2ccc(O)cc2)NC(=O)[C@H](C(C)C)NC(=O)[C@@H](NC(=O)[C@H](Cc2c[nH]c3ccccc23)NC(=O)[C@@H](N)CCCNC(=N)N)CSSC[C@@H](C(=O)N[C@@H](Cc2c[nH]c3ccccc23)C(=O)O)NC(=O)[C@H](CCCNC(=N)N)NC(=O)[C@H](CCCNC(=N)N)NC(=O)[C@H](Cc2ccc(O)cc2)NC(=O)[C@H](CCCNC(=N)N)NC(=O)[C@H](C(C)C)NC1=O` [AR, Arenicin-1] (HELM PEPTIDE1{R.W.C.V.Y.A.Y.V.R.V.R.G.V.L.V.R.Y.R.R.C.W}$PEPTIDE1,PEPTIDE1,3:R3-20:R3$$$V2.0) was tested. Which “SI2 improvement ratio in comparison with AR” value (“SI2 improvement ratio” below) [1] did it give?
**A.** 1.0

**Q.** And the “SI3 improvement ratio in comparison with AR” value (“SI3 improvement ratio” for short) [1]?
**A.** 1.0

**Q.** And the “SI3 assessment HC15/G-MIC” value [1]?
**A.** 3.8

**Q.** What about the “SI2 assessment HC50/G-MIC” value [1] of the same compound?
**A.** 24.6

**Q.** And the “G-MIC improvement ratio in comparison with AR” value (shortened to “G-MIC improvement ratio”) [2]?
**A.** 1.0

**Q.** And the “SI1 improvement ratio in comparison with AR” value (from here on “SI1 improvement ratio”) [3]?
**A.** 1.0

**Q.** And the “SI1 assessment IC50/G-MIC” value [3]?
**A.** 6.6

**Q.** `CC(C)C[C@@H]1NC(=O)[C@H](C(C)C)NC(=O)CNC(=O)[C@H](CCCNC(=N)N)NC(=O)[C@H](C(C)C)NC(=O)[C@H](CCCNC(=N)N)NC(=O)[C@H](C(C)C)NC(=O)[C@H](Cc2ccc(O)cc2)NC(=O)[C@H](C)NC(=O)[C@H](Cc2ccc(O)cc2)NC(=O)[C@H](C(C)C)NC(=O)[C@@H](NC(=O)[C@H](Cc2ccccc2)NC(=O)[C@@H](N)CCCNC(=N)N)CSSC[C@@H](C(=O)N[C@@H](Cc2ccccc2)C(=O)O)NC(=O)[C@H](CCCNC(=N)N)NC(=O)[C@H](CCCNC(=N)N)NC(=O)[C@H](Cc2ccc(O)cc2)NC(=O)[C@H](CCCNC(=N)N)NC(=O)[C@H](C(C)C)NC1=O` [AR-F] (HELM PEPTIDE1{R.F.C.V.Y.A.Y.V.R.V.R.G.V.L.V.R.Y.R.R.C.F}$PEPTIDE1,PEPTIDE1,3:R3-20:R3$$$V2.0; N-terminus and C-terminus assumed) was tested. Which “SI2 improvement ratio” value [1] did it give?
**A.** 1.4

**Q.** And the “SI3 improvement ratio” value [1]?
**A.** 1.6

**Q.** And the “SI3 assessment HC15/G-MIC” value [1]?
**A.** 6.0

**Q.** And the “SI2 assessment HC50/G-MIC” value [1]?
**A.** 34.0

**Q.** And the “G-MIC improvement ratio” value [2]?
**A.** 1.5 *

**Q.** And the “SI1 improvement ratio” value [3]?
**A.** 0.8

**Q.** What about the “SI1 assessment IC50/G-MIC” value [3] of the same compound?
**A.** 5.2

**Q.** Which results are given for `CC(C)C[C@@H]1NC(=O)[C@H](C(C)C)NC(=O)CNC(=O)[C@H](CCCCN)NC(=O)[C@H](C(C)C)NC(=O)[C@H](CCCCN)NC(=O)[C@H](C(C)C)NC(=O)[C@H](Cc2ccc(O)cc2)NC(=O)[C@H](C)NC(=O)[C@H](Cc2ccc(O)cc2)NC(=O)[C@H](C(C)C)NC(=O)[C@@H](NC(=O)[C@H](Cc2c[nH]c3ccccc23)NC(=O)[C@@H](N)CCCCN)CSSC[C@@H](C(=O)N[C@@H](Cc2c[nH]c3ccccc23)C(=O)O)NC(=O)[C@H](CCCCN)NC(=O)[C@H](CCCCN)NC(=O)[C@H](Cc2ccc(O)cc2)NC(=O)[C@H](CCCCN)NC(=O)[C@H](C(C)C)NC1=O` [AR-K] (HELM PEPTIDE1{K.W.C.V.Y.A.Y.V.K.V.K.G.V.L.V.K.Y.K.K.C.W}$PEPTIDE1,PEPTIDE1,3:R3-20:R3$$$V2.0; N-terminus assumed)?
**A.** SI2 improvement ratio in comparison with AR [1]: 1.3; SI3 improvement ratio in comparison with AR [1]: 1.4; SI3 assessment HC15/G-MIC [1]: 5.3; SI2 assessment HC50/G-MIC [1]: 33.1; G-MIC improvement ratio in comparison with AR [2]: 1.4 *; SI1 improvement ratio in comparison with AR [3]: 0.6; SI1 assessment IC50/G-MIC [3]: 4.0

**Q.** What does the source list for `CC(C)C[C@@H]1NC(=O)[C@H](C(C)C)NC(=O)CNC(=O)[C@H](CCCNC(=N)N)NC(=O)[C@H](C(C)C)NC(=O)[C@H](CCCNC(=N)N)NC(=O)[C@H](C(C)C)NC(=O)[C@H](Cc2ccc(O)cc2)NC(=O)[C@H](C)NC(=O)[C@H](Cc2ccc(O)cc2)NC(=O)[C@H](C(C)C)NC(=O)[C@@H]2CSSC[C@H](NC(=O)[C@H](CCCNC(=N)N)NC(=O)[C@H](CCCNC(=N)N)NC(=O)[C@H](Cc3ccc(O)cc3)NC(=O)[C@H](CCCNC(=N)N)NC(=O)[C@H](C(C)C)NC1=O)C(=O)N[C@@H](Cc1c[nH]c3ccccc13)C(=O)N[C@@H](CCCNC(=N)N)C(=O)N[C@@H](Cc1c[nH]c3ccccc13)C(=O)N2` [ARcycl] (HELM PEPTIDE1{R.W.C.V.Y.A.Y.V.R.V.R.G.V.L.V.R.Y.R.R.C.W}$PEPTIDE1,PEPTIDE1,3:R3-20:R3|PEPTIDE1,PEPTIDE1,1:R1-21:R2$$$V2.0)?
**A.** SI2 improvement ratio in comparison with AR [1]: 1.1; SI3 improvement ratio in comparison with AR [1]: 1.6; G-MIC improvement ratio in comparison with AR [2]: 1.2 *; SI1 improvement ratio in comparison with AR [3]: 1.1

**Q.** `CC(C)C[C@@H]1NC(=O)[C@H](C(C)C)NC(=O)CNC(=O)[C@H](CCCNC(=N)N)NC(=O)[C@H](C(C)C)NC(=O)[C@H](CCCNC(=N)N)NC(=O)[C@H](C(C)C)NC(=O)[C@H](CCCNC(=N)N)NC(=O)[C@H](Cc2ccc(O)cc2)NC(=O)[C@H](CCCNC(=N)N)NC(=O)[C@H](CCCNC(=N)N)NC(=O)[C@@H](NC(=O)[C@H](Cc2c[nH]c3ccccc23)NC(=O)[C@@H](N)CCCNC(=N)N)CSSC[C@@H](C(=O)N[C@@H](Cc2c[nH]c3ccccc23)C(=O)O)NC(=O)[C@H](C(C)C)NC(=O)[C@H](Cc2ccc(O)cc2)NC(=O)[C@H](C)NC(=O)[C@H](Cc2ccc(O)cc2)NC(=O)[C@H](C(C)C)NC1=O` [ARin-s] (HELM PEPTIDE1{R.W.C.R.R.Y.R.V.R.V.R.G.V.L.V.Y.A.Y.V.C.W}$PEPTIDE1,PEPTIDE1,3:R3-20:R3$$$V2.0; N-terminus assumed) was tested. Which “SI3 improvement ratio” value [1] did it give?
**A.** ≤0.4

**Q.** And the “SI3 assessment HC15/G-MIC” value [1]?
**A.** ≤1.3

**Q.** And the “G-MIC improvement ratio” value [2]?
**A.** ≤0.2

**Q.** What about the “SI1 improvement ratio” value [3] of the same compound?
**A.** ≤0.4

**Q.** What about the “SI1 assessment IC50/G-MIC” value [3] of the same compound?
**A.** ≤2.9

**Q.** With `CC(C)C[C@H](NC(=O)[C@@H](NC(=O)CNC(=O)[C@H](CCCNC(=N)N)NC(=O)[C@@H](NC(=O)[C@H](CCCNC(=N)N)NC(=O)[C@@H](NC(=O)[C@H](Cc1ccc(O)cc1)NC(=O)[C@H](C)NC(=O)[C@H](Cc1ccc(O)cc1)NC(=O)[C@@H](NC(=O)[C@H](CSCC(N)=O)NC(=O)[C@H](Cc1c[nH]c2ccccc12)NC(=O)[C@@H](N)CCCNC(=N)N)C(C)C)C(C)C)C(C)C)C(C)C)C(=O)N[C@H](C(=O)N[C@@H](CCCNC(=N)N)C(=O)N[C@@H](Cc1ccc(O)cc1)C(=O)N[C@@H](CCCNC(=N)N)C(=O)N[C@@H](CCCNC(=N)N)C(=O)N[C@@H](CSCC(N)=O)C(=O)N[C@@H](Cc1c[nH]c2ccccc12)C(=O)O)C(C)C` [ARlin] (H-RWC(Cam)VYAYVRVRGVLVRYRRC(Cam)W-OH; N-terminus assumed) as the compound, how does the “SI2 improvement ratio” value [1] read?
**A.** >1.0

**Q.** What about the “SI3 improvement ratio” value [1] of the same compound?
**A.** 2.5 *

**Q.** And the “SI3 assessment HC15/G-MIC” value [1]?
**A.** 9.5

**Q.** And the “SI2 assessment HC50/G-MIC” value [1]?
**A.** >25.6

**Q.** And the “G-MIC improvement ratio” value [2]?
**A.** 0.9

**Q.** And the “SI1 improvement ratio” value [3]?
**A.** >1.9 *

**Q.** What about the “SI1 assessment IC50/G-MIC” value [3] of the same compound?
**A.** >12.8
